Data taken from PMC3118192.
These are yes or no findings as the source states them, for the method shown. In cells and extracts the contact can be indirect. Some results given as binding are weak or reduced against the parent protein; the word gives no strength. Sequences can lack the tags named with a protein.

Chains of the proteins cited; added tags and fusions are not shown.
UniProt P62330: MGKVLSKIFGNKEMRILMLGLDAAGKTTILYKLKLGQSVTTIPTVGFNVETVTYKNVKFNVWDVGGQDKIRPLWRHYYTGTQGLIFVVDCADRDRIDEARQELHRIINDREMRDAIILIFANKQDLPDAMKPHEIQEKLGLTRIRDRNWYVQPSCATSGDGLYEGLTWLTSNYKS

Target: T1, GST-GGA3 (Golgi-associated gamma adaptin ear-containing Arf binding protein 3) (UniProt Q9NZ52)
T1 sequence: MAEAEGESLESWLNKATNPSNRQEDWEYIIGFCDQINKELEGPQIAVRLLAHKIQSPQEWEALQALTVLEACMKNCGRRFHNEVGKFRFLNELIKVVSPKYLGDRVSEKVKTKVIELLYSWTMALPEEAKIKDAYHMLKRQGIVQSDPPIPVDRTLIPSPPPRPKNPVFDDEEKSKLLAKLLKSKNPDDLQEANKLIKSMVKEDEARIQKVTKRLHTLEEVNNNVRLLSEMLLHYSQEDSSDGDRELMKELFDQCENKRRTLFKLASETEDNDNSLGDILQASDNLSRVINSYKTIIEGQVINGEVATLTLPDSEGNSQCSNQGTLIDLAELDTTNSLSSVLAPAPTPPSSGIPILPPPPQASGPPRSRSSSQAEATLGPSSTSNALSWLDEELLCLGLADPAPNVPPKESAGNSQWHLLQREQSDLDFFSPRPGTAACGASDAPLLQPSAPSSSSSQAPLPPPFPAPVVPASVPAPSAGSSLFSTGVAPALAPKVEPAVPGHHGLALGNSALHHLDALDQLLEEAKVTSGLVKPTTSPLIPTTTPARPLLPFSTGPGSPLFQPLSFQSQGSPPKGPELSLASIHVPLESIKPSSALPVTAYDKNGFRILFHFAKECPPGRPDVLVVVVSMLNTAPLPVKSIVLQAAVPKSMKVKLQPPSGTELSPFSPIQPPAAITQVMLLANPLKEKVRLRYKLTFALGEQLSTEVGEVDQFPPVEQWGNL
Assay: pull-down; EZ-Detect Rac1 or Arf6 activation kits; GST fusion on glutathione beads, whole cell lysates of U251 cells treated with 10 uM MIPP or DMSO for 4 h or 24 h; western blot of the protein collected on the beads; only the target purified

Substance: Arf6 (from UniProt P62330 1-175)
- binding: binds
